Results from the supplement of paper PMC12823440, “Inhibitors supercharge kinase turnover through native proteolytic circuits” (Nature, 2025).
Where a name gives a salt, the structure may show the parent alone. The list shows a part of the results. Hit calls seldom repeat between salt and free forms of one compound.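 Kinases were expressed as nanoluciferase fusions in K562 cells and luminescence was read every 4 h between 2 and 18 h as percent of control, DMSO set to 100% and a positive control to 0%. A time point counts as decreased when the signal drops significantly (2 sigma). The hit call is the authors' own, does not follow from the count of time points alone, and its rule is not shown.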

Amino acid sequences for entries named in this document (tags omitted). A change or cut given only in a name is not applied to a line headed by its entry.
UniProt Q01974, whole entry: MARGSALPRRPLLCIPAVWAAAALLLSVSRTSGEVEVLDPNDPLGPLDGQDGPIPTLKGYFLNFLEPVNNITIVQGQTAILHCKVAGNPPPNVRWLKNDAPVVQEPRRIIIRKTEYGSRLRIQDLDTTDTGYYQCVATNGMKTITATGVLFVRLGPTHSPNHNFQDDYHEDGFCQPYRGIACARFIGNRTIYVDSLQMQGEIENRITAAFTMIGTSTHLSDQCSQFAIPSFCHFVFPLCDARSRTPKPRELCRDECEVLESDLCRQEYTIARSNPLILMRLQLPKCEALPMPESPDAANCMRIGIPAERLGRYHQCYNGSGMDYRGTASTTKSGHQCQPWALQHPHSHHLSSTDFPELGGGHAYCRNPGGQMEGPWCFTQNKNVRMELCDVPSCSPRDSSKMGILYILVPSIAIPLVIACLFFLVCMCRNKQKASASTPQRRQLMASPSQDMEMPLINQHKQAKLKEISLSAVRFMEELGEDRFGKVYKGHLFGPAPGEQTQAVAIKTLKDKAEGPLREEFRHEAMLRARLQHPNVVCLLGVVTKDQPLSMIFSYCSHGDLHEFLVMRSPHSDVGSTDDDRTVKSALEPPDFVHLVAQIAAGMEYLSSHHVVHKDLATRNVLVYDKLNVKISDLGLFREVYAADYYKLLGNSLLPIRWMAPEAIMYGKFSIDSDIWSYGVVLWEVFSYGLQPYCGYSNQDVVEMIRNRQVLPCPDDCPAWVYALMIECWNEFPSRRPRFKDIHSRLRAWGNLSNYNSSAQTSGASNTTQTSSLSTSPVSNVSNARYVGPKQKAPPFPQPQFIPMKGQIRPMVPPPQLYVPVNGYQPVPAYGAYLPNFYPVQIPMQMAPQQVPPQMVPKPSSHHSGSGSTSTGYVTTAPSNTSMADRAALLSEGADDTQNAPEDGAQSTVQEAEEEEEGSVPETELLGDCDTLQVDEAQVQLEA
UniProt Q9NYA1, whole entry: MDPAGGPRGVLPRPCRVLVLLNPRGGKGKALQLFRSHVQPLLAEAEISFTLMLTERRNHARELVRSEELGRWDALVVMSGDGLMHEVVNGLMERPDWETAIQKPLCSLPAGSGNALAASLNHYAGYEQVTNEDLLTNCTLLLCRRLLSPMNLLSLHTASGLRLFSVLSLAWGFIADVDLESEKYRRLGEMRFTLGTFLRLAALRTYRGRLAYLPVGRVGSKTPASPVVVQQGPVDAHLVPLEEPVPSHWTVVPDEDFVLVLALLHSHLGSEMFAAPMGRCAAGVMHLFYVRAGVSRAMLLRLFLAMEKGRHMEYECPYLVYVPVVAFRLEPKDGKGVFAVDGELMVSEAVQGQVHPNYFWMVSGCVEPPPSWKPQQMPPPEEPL
UniProt Q9Y6E0: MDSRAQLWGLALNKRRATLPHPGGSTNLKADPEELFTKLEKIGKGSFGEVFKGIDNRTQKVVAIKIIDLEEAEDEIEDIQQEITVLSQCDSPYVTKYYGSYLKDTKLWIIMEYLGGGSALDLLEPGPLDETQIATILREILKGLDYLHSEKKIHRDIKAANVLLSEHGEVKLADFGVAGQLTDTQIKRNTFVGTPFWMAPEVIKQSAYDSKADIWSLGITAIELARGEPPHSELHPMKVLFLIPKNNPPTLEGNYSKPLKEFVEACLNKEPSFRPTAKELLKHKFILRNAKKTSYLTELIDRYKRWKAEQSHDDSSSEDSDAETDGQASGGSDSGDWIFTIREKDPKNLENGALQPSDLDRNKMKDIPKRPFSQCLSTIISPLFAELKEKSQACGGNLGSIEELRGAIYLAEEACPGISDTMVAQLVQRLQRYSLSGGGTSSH
UniProt P42680: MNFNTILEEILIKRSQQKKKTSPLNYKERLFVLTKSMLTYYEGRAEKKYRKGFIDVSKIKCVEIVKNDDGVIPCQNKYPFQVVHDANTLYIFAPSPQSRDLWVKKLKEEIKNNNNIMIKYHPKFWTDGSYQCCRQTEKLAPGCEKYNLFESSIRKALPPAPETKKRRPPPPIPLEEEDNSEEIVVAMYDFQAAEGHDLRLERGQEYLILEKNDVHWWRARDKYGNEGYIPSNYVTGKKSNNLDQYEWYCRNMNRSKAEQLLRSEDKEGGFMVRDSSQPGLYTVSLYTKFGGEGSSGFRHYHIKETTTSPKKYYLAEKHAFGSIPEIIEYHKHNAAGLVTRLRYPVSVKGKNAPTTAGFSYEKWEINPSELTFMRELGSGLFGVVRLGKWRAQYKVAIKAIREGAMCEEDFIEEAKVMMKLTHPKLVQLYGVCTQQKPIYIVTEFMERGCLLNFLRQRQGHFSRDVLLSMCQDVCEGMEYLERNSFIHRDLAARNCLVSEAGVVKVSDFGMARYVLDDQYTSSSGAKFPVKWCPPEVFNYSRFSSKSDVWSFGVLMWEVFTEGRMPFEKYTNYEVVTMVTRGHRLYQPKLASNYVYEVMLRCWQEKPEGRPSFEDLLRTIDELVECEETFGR
UniProt P29597: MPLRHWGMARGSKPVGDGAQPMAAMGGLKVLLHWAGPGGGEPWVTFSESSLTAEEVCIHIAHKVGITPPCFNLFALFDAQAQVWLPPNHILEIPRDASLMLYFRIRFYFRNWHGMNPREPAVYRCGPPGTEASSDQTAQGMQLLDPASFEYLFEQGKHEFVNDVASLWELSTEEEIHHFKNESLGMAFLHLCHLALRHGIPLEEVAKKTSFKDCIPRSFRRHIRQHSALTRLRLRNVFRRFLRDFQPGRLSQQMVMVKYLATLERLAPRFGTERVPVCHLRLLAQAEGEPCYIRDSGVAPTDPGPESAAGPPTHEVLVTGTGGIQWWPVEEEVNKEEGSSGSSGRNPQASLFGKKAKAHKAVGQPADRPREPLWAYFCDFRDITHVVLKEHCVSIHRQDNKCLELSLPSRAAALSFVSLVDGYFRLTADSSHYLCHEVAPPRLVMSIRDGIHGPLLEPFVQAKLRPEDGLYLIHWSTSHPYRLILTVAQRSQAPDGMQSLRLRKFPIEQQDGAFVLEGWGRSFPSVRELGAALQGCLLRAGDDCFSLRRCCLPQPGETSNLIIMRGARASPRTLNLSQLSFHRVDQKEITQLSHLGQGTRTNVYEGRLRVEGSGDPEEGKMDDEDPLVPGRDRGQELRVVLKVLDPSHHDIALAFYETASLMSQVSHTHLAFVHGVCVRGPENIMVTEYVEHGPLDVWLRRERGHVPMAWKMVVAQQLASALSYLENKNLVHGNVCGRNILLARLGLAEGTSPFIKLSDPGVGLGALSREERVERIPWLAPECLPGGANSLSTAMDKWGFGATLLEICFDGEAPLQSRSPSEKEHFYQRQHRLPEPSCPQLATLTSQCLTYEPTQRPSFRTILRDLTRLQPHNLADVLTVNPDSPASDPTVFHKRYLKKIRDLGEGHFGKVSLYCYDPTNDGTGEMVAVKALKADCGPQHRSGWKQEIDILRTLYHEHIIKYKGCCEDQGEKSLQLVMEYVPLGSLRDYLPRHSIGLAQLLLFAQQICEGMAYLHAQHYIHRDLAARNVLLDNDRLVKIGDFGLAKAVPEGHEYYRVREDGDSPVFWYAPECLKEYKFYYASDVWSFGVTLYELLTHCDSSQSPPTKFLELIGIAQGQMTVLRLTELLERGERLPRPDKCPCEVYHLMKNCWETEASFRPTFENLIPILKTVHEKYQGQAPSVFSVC
UniProt Q6PHR2: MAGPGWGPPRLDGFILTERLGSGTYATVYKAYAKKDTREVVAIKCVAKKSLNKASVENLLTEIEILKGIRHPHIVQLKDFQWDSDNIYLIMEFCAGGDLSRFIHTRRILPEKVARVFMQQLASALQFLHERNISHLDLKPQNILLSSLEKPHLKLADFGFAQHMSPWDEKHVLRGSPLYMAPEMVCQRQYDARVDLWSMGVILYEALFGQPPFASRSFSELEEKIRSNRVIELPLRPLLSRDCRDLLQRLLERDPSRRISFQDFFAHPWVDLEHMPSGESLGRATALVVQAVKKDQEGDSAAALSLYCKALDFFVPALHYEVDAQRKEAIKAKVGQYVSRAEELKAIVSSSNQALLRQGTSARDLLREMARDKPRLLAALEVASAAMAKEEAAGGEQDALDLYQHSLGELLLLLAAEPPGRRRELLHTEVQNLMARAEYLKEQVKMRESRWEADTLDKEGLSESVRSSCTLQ
UniProt P07947, whole entry, looked up: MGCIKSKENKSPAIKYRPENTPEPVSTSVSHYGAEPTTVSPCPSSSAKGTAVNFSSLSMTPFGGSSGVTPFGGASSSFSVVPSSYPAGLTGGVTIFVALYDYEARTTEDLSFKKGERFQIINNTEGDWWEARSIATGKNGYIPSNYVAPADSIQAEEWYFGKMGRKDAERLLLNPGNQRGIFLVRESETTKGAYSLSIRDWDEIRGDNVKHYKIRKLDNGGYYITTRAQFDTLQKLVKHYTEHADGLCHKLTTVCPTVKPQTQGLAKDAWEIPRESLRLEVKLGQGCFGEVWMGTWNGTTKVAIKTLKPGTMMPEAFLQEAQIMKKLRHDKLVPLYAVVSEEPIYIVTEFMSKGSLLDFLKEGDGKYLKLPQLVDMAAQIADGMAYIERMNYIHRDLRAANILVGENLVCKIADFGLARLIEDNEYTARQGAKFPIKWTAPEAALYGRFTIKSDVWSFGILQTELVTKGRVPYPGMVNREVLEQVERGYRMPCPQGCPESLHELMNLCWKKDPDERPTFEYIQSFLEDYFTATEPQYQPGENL
UniProt P43403: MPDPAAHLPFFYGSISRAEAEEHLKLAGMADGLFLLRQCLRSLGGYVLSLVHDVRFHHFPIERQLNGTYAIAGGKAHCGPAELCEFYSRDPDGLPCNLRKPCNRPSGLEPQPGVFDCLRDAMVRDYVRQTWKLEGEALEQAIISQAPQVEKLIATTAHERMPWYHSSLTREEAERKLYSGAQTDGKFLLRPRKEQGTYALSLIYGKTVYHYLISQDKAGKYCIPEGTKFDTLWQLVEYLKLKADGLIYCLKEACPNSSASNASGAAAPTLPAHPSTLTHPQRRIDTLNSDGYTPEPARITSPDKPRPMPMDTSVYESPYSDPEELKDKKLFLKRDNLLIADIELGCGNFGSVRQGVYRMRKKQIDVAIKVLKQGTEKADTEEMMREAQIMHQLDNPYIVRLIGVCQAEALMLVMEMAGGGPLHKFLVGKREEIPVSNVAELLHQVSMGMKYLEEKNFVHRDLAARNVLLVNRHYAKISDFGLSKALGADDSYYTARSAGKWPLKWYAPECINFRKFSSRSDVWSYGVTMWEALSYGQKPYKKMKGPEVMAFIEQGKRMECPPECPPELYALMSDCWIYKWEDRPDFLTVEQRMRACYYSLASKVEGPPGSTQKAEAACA
UniProt P11802: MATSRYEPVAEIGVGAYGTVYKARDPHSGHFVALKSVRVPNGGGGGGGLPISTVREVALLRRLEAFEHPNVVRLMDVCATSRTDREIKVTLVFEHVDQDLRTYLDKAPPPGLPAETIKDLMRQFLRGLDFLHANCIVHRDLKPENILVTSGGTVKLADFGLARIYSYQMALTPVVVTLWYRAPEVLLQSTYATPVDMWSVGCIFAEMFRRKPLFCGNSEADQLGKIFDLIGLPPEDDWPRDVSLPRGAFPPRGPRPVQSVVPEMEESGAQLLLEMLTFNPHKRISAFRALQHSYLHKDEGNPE
UniProt P50613: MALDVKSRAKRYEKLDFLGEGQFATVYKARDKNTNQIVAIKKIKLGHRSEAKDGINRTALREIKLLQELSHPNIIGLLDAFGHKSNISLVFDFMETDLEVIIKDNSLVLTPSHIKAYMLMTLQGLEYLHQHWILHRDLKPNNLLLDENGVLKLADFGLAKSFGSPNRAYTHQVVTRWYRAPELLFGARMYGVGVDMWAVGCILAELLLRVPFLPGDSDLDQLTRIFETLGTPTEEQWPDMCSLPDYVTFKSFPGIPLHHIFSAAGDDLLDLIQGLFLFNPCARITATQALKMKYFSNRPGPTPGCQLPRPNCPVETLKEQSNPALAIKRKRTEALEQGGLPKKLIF
UniProt P50750, whole entry: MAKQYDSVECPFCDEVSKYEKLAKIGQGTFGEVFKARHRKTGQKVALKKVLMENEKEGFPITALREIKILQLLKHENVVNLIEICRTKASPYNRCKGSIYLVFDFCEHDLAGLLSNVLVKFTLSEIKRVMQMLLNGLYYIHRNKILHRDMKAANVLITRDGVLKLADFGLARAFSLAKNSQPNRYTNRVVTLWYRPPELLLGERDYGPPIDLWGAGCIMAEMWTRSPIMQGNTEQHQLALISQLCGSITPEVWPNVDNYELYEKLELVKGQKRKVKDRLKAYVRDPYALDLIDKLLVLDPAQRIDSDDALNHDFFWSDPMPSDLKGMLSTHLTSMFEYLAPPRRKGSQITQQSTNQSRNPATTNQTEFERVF

Tests used:
Details in all cases: K562; 2-18 h
[1] = molecular target: ROR2 (UniProt Q01974); assay: number of time points (of 5) at which kinase-Nluc abundance scored as decreased, DMSO-normalised (count); higher = more persistent destabilization
[2] = molecular target: RPS6KA1 (UniProt Q15418); assay: as above
[3] = molecular target: SPHK1 (UniProt Q9NYA1); assay: as above
[4] = molecular target: SRC (UniProt P12931); assay: as above
[5] = molecular target: STK24 (UniProt Q9Y6E0); assay: as above
[6] = molecular target: STK38 (UniProt Q15208); assay: as above
[7] = molecular target: SYK (UniProt P43405); assay: as above
[8] = molecular target: TEC (UniProt P42680); assay: as above
[9] = molecular target: TYK2 (UniProt P29597); assay: as above
[10] = molecular target: ULK3 (UniProt Q6PHR2); assay: as above
[11] = molecular target: YES1 (UniProt P07947); assay: as above
[12] = molecular target: ZAK (UniProt Q9NYL2); assay: as above
[13] = molecular target: ZAP70 (UniProt P43403); assay: as above
[14] = molecular target: CDK4 (UniProt P11802); assay: number of time points (of 4; 2 h point missing) at which kinase-Nluc abundance scored as decreased, DMSO-normalised (count); higher = more persistent destabilization
[15] = molecular target: CDK7 (UniProt P50613); assay: as above
[16] = molecular target: CDK9 (UniProt P50750); assay: as above

Measured: number of time points

O=C1C(=Cc2ccc(O)c(O)c2)Oc2ccccc21 (2.5 µM)
0: all assays above

O=C(CCc1ccc2n1[B-](F)(F)[N+]1=C(c3ccc[nH]3)C=CC1=C2)ON1C(=O)CCC1=O [Py-BODIPY-NHS ester] (2.5 µM)
0: all assays above

COc1cc(-c2cnc(N)c(-c3ccc(NC(=O)c4cn(CC5CCOCC5)cc(-c5ccc(C)cn5)c4=O)cc3F)c2)ccc1OC[C@H]1COCCO1 [DS-1205b (free base)] (10 µM)
0: all assays above

COc1cc(/C=C/c2ccc(NC(=O)/C=C/c3cc(OC)c(OC)c(OC)c3)cc2)cc(OC)c1 (2.5 µM)
0: all assays above

CC1=C(C(=O)Nc2ccc3[nH]ncc3c2)C(c2ccc(F)c(C(=O)NCc3ccccn3)c2)NC(=O)N1 (configuration not stated) (10 µM)
0: all assays above

CCCCNc1ncc2c(-c3ccc(CN4CCN(C)CC4)cc3)cn([C@H]3CC[C@H](O)CC3)c2n1 [UNC2025 (hydrochloride)] (2.5 µM)
4: [10]
1: [11]
0: all other assays above

C[C@@H]1O[C@@H](O[C@H]2[C@H](OC(=O)[C@]34CCC(C)(C)C[C@H]3C3=CC[C@@H]5[C@@]6(C)C[C@H](O)[C@H](O[C@@H]7O[C@H](CO)[C@@H](O)[C@H](O)[C@H]7O)C(CO)(CO)[C@@H]6CC[C@@]5(C)[C@]3(C)C[C@H]4O)OC[C@H](O)[C@@H]2O)[C@H](O)[C@H](O)[C@H]1O[C@@H]1OC[C@@H](O)[C@H](O[C@@H]2OC[C@](O)(CO)[C@H]2O)[C@H]1O [Platycodin D] (10 µM)
1: [10]
0: all other assays above

3 structures out of the list, sorted by length of the SMILES, falling:
C[C@@H]1O[C@@H](O[C@H]2[C@H](OC(=O)[C@]34CCC(C)(C)C[C@H]3C3=CC[C@@H]5[C@@]6(C)C[C@H](O)[C@H](O[C@@H]7O[C@H](CO)[C@@H](O)[C@H](O)[C@H]7O)C(CO)(CO)[C@@H]6CC[C@@]5(C)[C@]3(C)C[C@H]4O)OC[C@H](O)[C@@H]2O)[C@H](O)[C@H](O)[C@H]1O[C@@H]1OC[C@@H](O)[C@H](O[C@@H]2OC[C@](O)(CO)[C@H]2O)[C@H]1O [Platycodin D] (10 µM)
1: [10]
0: all other assays above

COc1cc(-c2cnc(N)c(-c3ccc(NC(=O)c4cn(CC5CCOCC5)cc(-c5ccc(C)cn5)c4=O)cc3F)c2)ccc1OC[C@H]1COCCO1 [DS-1205b (free base)] (10 µM)
0: all assays above

COc1cc(/C=C/c2ccc(NC(=O)/C=C/c3cc(OC)c(OC)c(OC)c3)cc2)cc(OC)c1 (2.5 µM)
0: all assays above

More entries follow.

C=C[C@H]1[C@H](O[C@@H]2O[C@H](CO)[C@@H](O)[C@H](O)[C@H]2O)OC=C(C(=O)OC)[C@H]1CCOC(=O)c1cc(O)c(O)c(O)c1 [Cornuside] (10 µM)
0: all assays above

Clc1ccc(Nc2cccc(-c3cn[nH]c3)c2)cc1 (10 µM)
0: all assays above

CCCC[C@H](CO)Nc1nc(NC)ncc1OC [Interferon receptor inducer-1] (10 µM)
0: all assays above

COc1ccc2c(c1)C[C@H](C(=O)Nc1ccc(-c3cn[nH]c3)cc1OCCN(C)C)CO2 [Chroman 1] (10 µM)
0: all assays above

O=C(O)/C=C/c1cc(Br)c(Br)c(Br)c1Br (10 µM)
0: all assays above

CCC(=O)N1CC[C@H](Nc2ncnc3c2CN(c2cnc(OC)c(C(F)(F)F)c2)CC3)C1 [Leniolisib] (10 µM)
0: all assays above

CCc1nc(C(N)=O)c(Nc2ccc(N3CCC(N4CCN(C)CC4)CC3)c(OC)c2)nc1NC1CCC(OC)CC1 (configuration not stated) [EML4-ALK kinase inhibitor 1] (2.5 µM)
0: all assays above

CN1CCN(c2ccc(NC(=O)c3ccc(C#N)o3)c(N3CCCCC3)c2)CC1 (10 µM)
1: [16]
0: all other assays above

Cc1ccc(-n2c(-c3ccc(O)cc3O)n[nH]c2=O)cc1 (10 µM)
4: [15]
2: [6] | [16]
3: [8] | [11]
5: [9] | [10]
1: [12] | [14]
0: all other assays above

C1=N/C2=N/c3ccc(OCCN4CCCC4)c(c3)COC/C=C/COCc3cccc(c3)C(=C1)N2 [Pacritinib] (2.5 µM)
3: [15]
0: all other assays above

O=C1c2c(O)cc(O)cc2O[C@H](c2cc(O)c(O)c(O)c2)[C@H]1O [Dihydromyricetin] (10 µM)
0: all assays above

CC(C)[C@H](CO)Nc1nc(Nc2ccc(C(=O)O)c(Cl)c2)c2ncn(C(C)C)c2n1 [Purvalanol B] (10 µM)
0: all assays above

CCn1c2ccccc2c2cc(Nc3ccnc(NCCCN4CCOCC4)n3)ccc21 (2.5 µM)
0: all assays above

CNC[C@@H](NC(=O)c1ccc(-c2nc([C@H]3CC[C@H](O)[C@@H](F)C3)cnc2N)cc1F)c1cc(F)cc(Br)c1 [Rineterkib] (10 µM)
0: all assays above

Nc1n[nH]c(N)c1N=Nc1ccc(O)cc1 (10 µM)
0: all assays above

C[C@]1(O)C[C@@](N)(c2ccc(-c3nc4n(c3-c3ccccc3)COc3ccncc3-4)cc2)C1 [TAS-117 (hydrochloride)] (10 µM)
0: all assays above

CC(C)=C/C=C1\O[C@@H]2CC(C)=CC(=O)[C@@H]2[C@]1(C)O [Bisabolangelone] (10 µM)
0: all assays above

Cc1ccc(Nc2c(C(N)=O)cnc3cc(-c4ccncc4)ccc23)cc1C [cFMS Receptor Inhibitor II] (10 µM)
0: all assays above

CS(=O)(=O)N1CCc2c(-c3cnc(N)nc3)nc(N3CCOCC3)nc21 (10 µM)
1: [15]
0: all other assays above

O=C(NCc1cccc(O)c1)c1cc2cc(F)ccc2[nH]1 (10 µM)
0: all assays above
